PMC3410867
These are yes or no findings as the source states them, for the method shown. Binding seen in cells or lysates may run through a third protein. Some binding calls cover weakened binding; strength is not graded here.

Sequences of proteins named here, by UniProt entry; tags and fusion partners are left off.
UniProt P24100: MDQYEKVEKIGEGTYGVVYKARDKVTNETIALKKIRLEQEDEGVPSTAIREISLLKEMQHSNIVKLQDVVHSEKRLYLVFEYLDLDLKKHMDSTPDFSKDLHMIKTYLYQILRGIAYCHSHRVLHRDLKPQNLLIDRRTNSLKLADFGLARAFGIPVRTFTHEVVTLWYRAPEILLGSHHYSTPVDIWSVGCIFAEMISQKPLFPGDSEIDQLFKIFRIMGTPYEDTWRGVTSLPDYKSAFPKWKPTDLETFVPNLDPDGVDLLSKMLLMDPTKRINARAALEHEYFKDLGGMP

Target: T1, KRP1 (Arabidopsis thaliana) (UniProt Q67Y93)
T1 sequence: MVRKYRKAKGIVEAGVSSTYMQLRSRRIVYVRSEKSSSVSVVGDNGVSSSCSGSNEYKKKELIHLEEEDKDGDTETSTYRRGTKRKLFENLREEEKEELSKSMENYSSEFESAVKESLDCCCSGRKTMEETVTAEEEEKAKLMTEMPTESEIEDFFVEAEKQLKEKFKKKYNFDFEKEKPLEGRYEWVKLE
Experiment: split reporter; BiFC of CDKA;1 variants with cyclins, KRPs and CKS; semiquantitative, by number of positive cells and fluorescence intensity; each interaction tested at least three times; as described in ref. 66

binding: binds
Substance: CDKA;1 (wild-type form) (from UniProt P24100 1-294) (enzyme)
